From PubChem BioAssay AID488840 (Broad Institute, 2010)
The whole screen tested about 1,400 compounds, of which about 45 (3%) were called active.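 Rule for the calls: active = half-maximal dose of signal decrease from fit no higher than ten times the top valid tested dose; inconclusive = fit invalid, or curve flat with 30 to 70% inhibition; inactive = the rest.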 This is one part of the list. Measured potencies and affinities stand elsewhere.

By UniProt entry, the sequences of proteins in these tests, tags left out. Where a name states a change or a piece, a line headed by the entry shows the natural chain unless it says otherwise.
UniProt O75164: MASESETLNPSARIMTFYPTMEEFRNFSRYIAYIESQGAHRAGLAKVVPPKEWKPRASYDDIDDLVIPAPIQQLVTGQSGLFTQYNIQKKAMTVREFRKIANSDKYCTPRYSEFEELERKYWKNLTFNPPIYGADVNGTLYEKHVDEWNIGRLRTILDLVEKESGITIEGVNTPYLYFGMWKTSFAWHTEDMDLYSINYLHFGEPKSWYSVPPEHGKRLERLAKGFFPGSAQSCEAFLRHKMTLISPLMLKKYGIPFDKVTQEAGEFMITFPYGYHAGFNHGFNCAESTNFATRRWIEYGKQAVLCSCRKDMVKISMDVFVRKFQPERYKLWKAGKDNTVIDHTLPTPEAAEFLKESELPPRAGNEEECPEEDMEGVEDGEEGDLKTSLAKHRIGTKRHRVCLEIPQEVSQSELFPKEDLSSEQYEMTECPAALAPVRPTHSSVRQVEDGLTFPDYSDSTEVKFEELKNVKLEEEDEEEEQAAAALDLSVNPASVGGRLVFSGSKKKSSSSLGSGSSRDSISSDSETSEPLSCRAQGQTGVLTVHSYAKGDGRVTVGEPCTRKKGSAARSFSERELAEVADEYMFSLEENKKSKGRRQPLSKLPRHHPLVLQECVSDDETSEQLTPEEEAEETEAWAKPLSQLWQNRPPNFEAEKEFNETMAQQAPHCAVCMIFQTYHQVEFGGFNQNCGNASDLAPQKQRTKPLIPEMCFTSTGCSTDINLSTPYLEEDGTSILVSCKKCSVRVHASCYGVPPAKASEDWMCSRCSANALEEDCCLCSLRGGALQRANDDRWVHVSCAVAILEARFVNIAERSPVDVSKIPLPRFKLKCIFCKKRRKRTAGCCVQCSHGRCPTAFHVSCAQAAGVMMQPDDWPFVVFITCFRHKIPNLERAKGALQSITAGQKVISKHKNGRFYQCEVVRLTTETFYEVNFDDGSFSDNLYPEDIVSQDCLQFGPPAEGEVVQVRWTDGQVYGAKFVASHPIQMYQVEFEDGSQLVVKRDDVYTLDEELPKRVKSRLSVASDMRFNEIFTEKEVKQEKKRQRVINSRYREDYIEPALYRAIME

Biological target: Lysine-specific demethylase 4A (Homo sapiens) (UniProt O75164)
Assay: JMJD2A histone demethylase inhibitors, dose response, selectivity assay for GASC-1 inhibitor project, biochemical, DELFIA europium, cherry-picked samples (AID 488840);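 note: europium signal reports the dimethyl H3K9 product detected by antibody so inhibitors lower it; 0% = median of neutral control wells and -100% = median of positive control wells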
Conditions: GST-JMJD2A(1-420) H3K9me3 demethylation; at 6 µM (top of the series) unless noted

Activity change, negative = inhibition, inactive:
CCOC(=O)[C@H]1[C@H]2COc3ccc(OC)cc3[C@@H]2N2C(=O)c3cc(C)ccc3NC(=O)[C@@]12C 7.75%
Cc1noc(C)c1NC(=O)Nc1cccc2c1O[C@H](CN(C)S(=O)(=O)c1cccs1)[C@@H](C)CN([C@H](C)CO)C2=O -2.83%
O=C1[C@@H]2[C@H](C(=O)N1O)[C@H]1C=C[C@@H]2C1 6.42%
CSc1nc(N)nc2c1ncn2CC(=O)N[C@H](CO)Cc1c[nH]c2ccccc12 -1.96%
Oc1cc(O)cc(/C=C/c2ccc(O)c(O)c2)c1 -0.168%
Cc1ccc(-c2csc3nc(C)n(-n4c(C)ccc4C)c(=O)c23)o1 -4.71%
Cc1ccc(OCc2nnnn2-c2ccccc2)cc1 4.18%
COc1cccc(C2c3[nH]c4ccccc4c3CCN2CCCn2cccn2)c1 (stereo not drawn) -3.61%
CC(C)(C)OC(=O)NNC(=O)Nc1ccccc1C(F)(F)F -0.854%
Cc1ccc(C(C)C)c(Oc2nnnn2-c2ccccc2)c1 0.187%
O=C1CC2(CCN(C(=O)c3ccccc3Cl)CC2)Oc2ccccc21 -4.38%
Cc1cccc(CN2CCC(Oc3ccc(C(=O)N4CCCC4)cc3)CC2)n1 1.86%
Cc1nc2ccccn2c1C(=O)NCCCN1CCOCC1 -2.15%
Cc1cc(N2C(=O)C(=O)/C(=C(/O)c3ccc(F)cc3)C2c2cccc(Br)c2)no1 (stereo not drawn) -0.821%
C#CCOCCOCCOCCNc1nc(N2CCN(C(=O)[C@H](CCC(=O)O)n3cc(CN)nn3)CC2)nc(N2CCN(C(=O)[C@H](CCCN=C(N)N)n3cc(C(N)[C@@H](C)CC)nn3)CC2)n1 (stereo partly drawn) 1.13%
Cc1ccc(CCNC(=O)C23C[C@H]4C[C@@H](C2)CC(n2nnc(C)n2)(C4)C3)cc1 -2.36%
CCCNC1=C(N(C(C)=O)c2cccc(F)c2)C(=O)c2ccccc2C1=O -4.23%
c1coc(CSCc2cn3cccnc3n2)c1 5.39%
C=C(C)COc1ccc(-c2n[nH]c(C)c2-c2ccccc2)c(O)c1 13.4%
CS(=O)(=O)c1ccccc1-c1nnc(NC(=O)c2ccc3ncsc3c2)o1 1.2%
COC(=O)C1=C(C)OC(N)=C(C#N)C1c1cc2cccc(C)c2nc1Cl (stereo not drawn) 3.92%
NC(=O)CC(NC(=S)NCc1ccccc1)C(=O)O (stereo not drawn) 0.543%
COc1ccc(S(=O)(=O)N2CC(O)CC2C(=O)OCc2nc3sc(C)c(C)c3c(=O)[nH]2)cc1 (stereo not drawn) -4.05%
C=CCN(CC=C)Cc1c(O)ccc2c1oc(=O)c1ccccc12 3.31%
CCOC(=O)[C@H]1[C@H]2COc3ccc(C)cc3[C@@H]2N2C(=O)c3ccc(Cl)cc3NC(=O)[C@@]12C -4%
O=C(c1ccc2c(c1)OCO2)N1CCCN(C(=O)c2ccc3c(c2)OCO3)CC1 3.49%
N#Cc1ccc(CSc2ncnc3c2cnn3Cc2ccccc2)cc1 -2.66%
c1ccc2cc(CCO[C@H]3CCCCO3)ncc2c1 -1.12%
N#CC1=C(N)N2C(=C(C#N)C13CCCCC3)SC1CCCCC12O (stereo not drawn) 0.652%
Cc1ccc(C(Sc2ccccc2)C(Cn2cncn2)C(=O)c2ccccc2)cc1 (stereo not drawn) 0.915%
Cn1c(=O)[nH]c(=O)c2c1nc(SCC(=O)O)n2CCc1ccccc1 1.92%
CCCSc1nc(-c2ccccc2)cc(C(F)(F)F)c1C#N 1.49%
O=c1oc2ccccc2c(O)c1C=NCc1ccccn1 3.55%
Cn1cc(C(=O)N2CCCCC2)c(=O)c2cc(S(=O)(=O)N3CCCC3)ccc21 -13.4%
CCOC(=O)CCC(=O)NCc1ccc2c(c1)cc(C)n2C 13.1%
CN(C)CCCNC1=CC(=O)OC12CCCCC2 6.24%
Cc1ccc(-n2nc3c(N4CCC(C(=O)N5CCCCCC5)CC4)nnc(C)c3c2C)cc1 2.68%
Cc1nnc(N2C(=O)c3cccc4c([N+](=O)[O-])ccc(c34)C2=O)s1 -1.72%
O=C(COC(=O)c1cccs1)c1ccccc1 -1.5%
Oc1ccc(C2Nc3cccc4cccc(c34)N2)cc1 5.71%
O=C(O)c1cc2cc(Cl)ccc2oc1=O -4.41%
C[C@H](CO)N1C[C@H](C)[C@@H](CN(C)Cc2ccc3c(c2)OCO3)Oc2c(NC(=O)C3CCCCC3)cccc2C1=O -7.36%
Cc1occc1-c1nnc(SCC(=O)c2c[nH]c3ccccc23)n1C -3.2%
COc1cccc2c1nc(C)c1cc(C)oc12 1.66%
COc1ccc(-n2cc(C(=O)O)c3ccccc3c2=O)cc1 2.71%
COC(=O)[C@@H](N)Cc1ccc(O)c(O)c1 -7.2%
Cc1ccc(NC(=O)C2C3CCCC2C3c2ccccc2)cc1C (stereo not drawn) -3.04%
Cn1nnc(NC(=O)CSc2ccc(Cl)cc2)n1 1.81%
NC(=S)Nc1ccc(Cl)cc1Cl 4.69%
COc1ccc(-c2ccc3oc(-c4ccsc4)cc(=O)c3c2)cn1 4.68%
CCCc1cc(=O)[nH]c(SCC(=O)Nc2cc(S(=O)(=O)N(CC)c3ccccc3)ccc2Cl)n1 -1.23%
COc1cccc(NC(=O)COC(=O)c2ccc(S(=O)(=O)NCc3ccco3)cc2)c1 1.97%
COc1ccc(OC)c(Nc2nnc(C)c(=O)[nH]2)c1 -3.21%
CCC(C)NC(=S)N1CCN(C)CC1 (stereo not drawn) 1.71%
Cc1ccc2c(c1)N(CC(=O)NCC1CCCO1)C(=O)C(C(C)C)O2 (stereo not drawn) 5%
Cc1cc(N2CCN(c3ccccc3)CC2)nc(-c2ccccc2)n1 -0.55%
CN(C(=O)c1ccc(Cl)c([N+](=O)[O-])c1)C1(C)CCS(=O)(=O)C1 (stereo not drawn) 1.09%
O=c1c2ccccc2nc2c3ccccc3c(NCc3ccco3)nn12 3.39%

Structural class: those above with an aryl thioether with sulfur outside any ring.
Activity change, negative = inhibition, inactive:
CSc1nc(N)nc2c1ncn2CC(=O)N[C@H](CO)Cc1c[nH]c2ccccc12 -1.96%
N#Cc1ccc(CSc2ncnc3c2cnn3Cc2ccccc2)cc1 -2.66%
Cc1ccc(C(Sc2ccccc2)C(Cn2cncn2)C(=O)c2ccccc2)cc1 (stereo not drawn) 0.915%
Cn1c(=O)[nH]c(=O)c2c1nc(SCC(=O)O)n2CCc1ccccc1 1.92%
CCCSc1nc(-c2ccccc2)cc(C(F)(F)F)c1C#N 1.49%
Cc1occc1-c1nnc(SCC(=O)c2c[nH]c3ccccc23)n1C -3.2%
Cn1nnc(NC(=O)CSc2ccc(Cl)cc2)n1 1.81%
CCCc1cc(=O)[nH]c(SCC(=O)Nc2cc(S(=O)(=O)N(CC)c3ccccc3)ccc2Cl)n1 -1.23%

3 entries already listed, ordered by formula weight, smallest number first:
Activity change, negative = inhibition, inactive:
O=C1[C@@H]2[C@H](C(=O)N1O)[C@H]1C=C[C@@H]2C1 6.42%
CCCNC1=C(N(C(C)=O)c2cccc(F)c2)C(=O)c2ccccc2C1=O -4.23%
Cc1ccc(C(Sc2ccccc2)C(Cn2cncn2)C(=O)c2ccccc2)cc1 (stereo not drawn) 0.915%
